We go through 24 targets from the supplement of paper PMC11732987, “Enantioselective OTUD7B fragment discovery through chemoproteomics screening and high-throughput optimisation” (Communications Chemistry, 2025).

Amino acid sequences for entries named in this document (tags omitted). A change or cut given only in a name is not applied to a line headed by its entry. Residues count along the entry.
UniProt O00750, 418-438: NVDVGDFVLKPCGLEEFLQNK
UniProt Q15126: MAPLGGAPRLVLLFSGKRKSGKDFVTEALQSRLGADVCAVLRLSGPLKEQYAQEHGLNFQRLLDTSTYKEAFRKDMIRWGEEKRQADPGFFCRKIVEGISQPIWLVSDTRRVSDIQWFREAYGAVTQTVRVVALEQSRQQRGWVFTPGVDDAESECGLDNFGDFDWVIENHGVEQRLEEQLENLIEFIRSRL
UniProt Q14442: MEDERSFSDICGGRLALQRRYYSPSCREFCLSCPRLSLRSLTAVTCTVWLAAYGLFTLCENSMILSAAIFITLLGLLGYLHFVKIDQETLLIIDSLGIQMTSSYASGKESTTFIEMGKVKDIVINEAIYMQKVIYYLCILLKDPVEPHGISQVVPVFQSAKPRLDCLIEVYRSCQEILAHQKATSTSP
UniProt Q92871: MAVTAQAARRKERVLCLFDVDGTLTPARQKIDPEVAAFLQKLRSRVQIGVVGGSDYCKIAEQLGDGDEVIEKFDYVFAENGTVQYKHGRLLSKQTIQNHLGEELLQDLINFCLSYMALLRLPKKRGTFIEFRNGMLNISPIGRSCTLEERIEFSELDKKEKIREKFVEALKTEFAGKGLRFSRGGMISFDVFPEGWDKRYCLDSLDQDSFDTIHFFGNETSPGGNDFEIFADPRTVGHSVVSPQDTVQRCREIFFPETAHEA
UniProt O95602: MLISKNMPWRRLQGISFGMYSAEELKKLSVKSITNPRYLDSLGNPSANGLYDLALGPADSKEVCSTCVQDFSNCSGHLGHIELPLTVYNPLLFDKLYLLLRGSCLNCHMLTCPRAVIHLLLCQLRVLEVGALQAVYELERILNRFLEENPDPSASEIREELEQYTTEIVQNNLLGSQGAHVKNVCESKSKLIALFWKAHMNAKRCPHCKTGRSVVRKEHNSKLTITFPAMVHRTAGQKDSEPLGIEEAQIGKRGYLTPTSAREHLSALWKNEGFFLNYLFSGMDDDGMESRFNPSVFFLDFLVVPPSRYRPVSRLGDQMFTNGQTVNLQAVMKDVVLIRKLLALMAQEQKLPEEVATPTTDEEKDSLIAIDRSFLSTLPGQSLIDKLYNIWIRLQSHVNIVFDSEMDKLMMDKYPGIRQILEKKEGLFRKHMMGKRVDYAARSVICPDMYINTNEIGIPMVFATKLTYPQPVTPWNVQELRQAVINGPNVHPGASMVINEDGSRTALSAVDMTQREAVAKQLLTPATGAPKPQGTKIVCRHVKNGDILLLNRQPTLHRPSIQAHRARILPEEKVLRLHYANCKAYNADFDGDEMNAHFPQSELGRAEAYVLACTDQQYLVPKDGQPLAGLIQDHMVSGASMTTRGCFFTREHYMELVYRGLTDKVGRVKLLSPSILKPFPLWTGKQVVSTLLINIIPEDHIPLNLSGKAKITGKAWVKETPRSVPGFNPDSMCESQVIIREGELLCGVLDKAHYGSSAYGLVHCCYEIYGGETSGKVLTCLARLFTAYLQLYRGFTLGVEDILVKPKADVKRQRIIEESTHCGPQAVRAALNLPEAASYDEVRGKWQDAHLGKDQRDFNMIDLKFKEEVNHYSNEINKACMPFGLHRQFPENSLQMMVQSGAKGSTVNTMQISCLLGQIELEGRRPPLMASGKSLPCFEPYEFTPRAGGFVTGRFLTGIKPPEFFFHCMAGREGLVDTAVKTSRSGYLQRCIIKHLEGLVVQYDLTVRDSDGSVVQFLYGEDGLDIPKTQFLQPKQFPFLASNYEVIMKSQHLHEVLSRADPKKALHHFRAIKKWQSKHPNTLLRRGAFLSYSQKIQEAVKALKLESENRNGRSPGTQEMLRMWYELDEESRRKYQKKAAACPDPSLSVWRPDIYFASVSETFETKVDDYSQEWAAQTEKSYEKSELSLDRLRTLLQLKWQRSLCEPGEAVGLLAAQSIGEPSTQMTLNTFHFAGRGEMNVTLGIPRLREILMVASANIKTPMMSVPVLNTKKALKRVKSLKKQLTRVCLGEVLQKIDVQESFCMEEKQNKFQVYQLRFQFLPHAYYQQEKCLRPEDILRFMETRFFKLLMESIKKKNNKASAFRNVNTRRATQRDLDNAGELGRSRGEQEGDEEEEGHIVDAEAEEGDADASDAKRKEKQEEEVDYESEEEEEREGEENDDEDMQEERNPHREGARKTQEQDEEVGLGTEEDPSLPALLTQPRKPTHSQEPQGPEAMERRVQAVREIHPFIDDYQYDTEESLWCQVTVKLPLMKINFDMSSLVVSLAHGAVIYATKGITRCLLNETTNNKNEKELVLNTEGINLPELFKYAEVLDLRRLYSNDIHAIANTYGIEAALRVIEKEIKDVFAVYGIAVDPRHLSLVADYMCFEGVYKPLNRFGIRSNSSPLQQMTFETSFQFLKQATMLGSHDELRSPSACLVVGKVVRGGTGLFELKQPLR
UniProt P09884: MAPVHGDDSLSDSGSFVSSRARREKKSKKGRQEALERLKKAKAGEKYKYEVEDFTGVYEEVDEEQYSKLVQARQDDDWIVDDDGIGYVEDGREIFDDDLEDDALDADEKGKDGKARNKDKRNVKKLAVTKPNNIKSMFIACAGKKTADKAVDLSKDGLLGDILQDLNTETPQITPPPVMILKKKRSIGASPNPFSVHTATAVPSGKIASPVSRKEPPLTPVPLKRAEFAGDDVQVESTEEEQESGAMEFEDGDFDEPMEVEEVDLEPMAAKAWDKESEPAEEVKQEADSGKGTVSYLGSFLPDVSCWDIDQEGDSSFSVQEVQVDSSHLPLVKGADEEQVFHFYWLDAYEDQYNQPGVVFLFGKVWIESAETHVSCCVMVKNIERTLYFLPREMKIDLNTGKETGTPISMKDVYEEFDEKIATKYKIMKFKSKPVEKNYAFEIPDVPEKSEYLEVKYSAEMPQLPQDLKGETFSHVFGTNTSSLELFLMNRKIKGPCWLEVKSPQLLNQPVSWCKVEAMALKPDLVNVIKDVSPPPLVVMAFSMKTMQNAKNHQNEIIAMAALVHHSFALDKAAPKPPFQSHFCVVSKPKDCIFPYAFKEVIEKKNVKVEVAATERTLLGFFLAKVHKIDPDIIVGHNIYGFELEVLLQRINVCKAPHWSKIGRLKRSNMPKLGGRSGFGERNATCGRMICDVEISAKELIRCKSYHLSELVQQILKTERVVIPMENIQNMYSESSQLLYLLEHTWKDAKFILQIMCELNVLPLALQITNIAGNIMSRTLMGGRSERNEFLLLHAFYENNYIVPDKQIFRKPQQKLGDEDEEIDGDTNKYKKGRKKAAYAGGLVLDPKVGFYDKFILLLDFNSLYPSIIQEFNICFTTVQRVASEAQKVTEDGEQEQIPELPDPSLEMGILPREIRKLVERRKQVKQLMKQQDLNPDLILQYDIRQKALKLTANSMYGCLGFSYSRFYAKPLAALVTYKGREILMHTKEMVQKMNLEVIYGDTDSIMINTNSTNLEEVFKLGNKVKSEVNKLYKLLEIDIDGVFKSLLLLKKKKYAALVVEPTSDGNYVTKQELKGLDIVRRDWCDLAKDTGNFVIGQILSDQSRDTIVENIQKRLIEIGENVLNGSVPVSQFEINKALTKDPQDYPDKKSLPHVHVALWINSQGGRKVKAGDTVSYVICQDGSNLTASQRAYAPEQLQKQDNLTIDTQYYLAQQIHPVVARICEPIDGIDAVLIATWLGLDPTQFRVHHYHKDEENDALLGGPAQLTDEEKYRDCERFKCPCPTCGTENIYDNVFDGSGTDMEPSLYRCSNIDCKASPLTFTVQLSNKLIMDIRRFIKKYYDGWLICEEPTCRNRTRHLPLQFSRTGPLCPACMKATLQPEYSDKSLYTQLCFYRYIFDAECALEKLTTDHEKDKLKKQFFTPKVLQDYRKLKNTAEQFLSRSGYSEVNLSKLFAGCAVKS
UniProt Q8NEB9, whole entry, looked up: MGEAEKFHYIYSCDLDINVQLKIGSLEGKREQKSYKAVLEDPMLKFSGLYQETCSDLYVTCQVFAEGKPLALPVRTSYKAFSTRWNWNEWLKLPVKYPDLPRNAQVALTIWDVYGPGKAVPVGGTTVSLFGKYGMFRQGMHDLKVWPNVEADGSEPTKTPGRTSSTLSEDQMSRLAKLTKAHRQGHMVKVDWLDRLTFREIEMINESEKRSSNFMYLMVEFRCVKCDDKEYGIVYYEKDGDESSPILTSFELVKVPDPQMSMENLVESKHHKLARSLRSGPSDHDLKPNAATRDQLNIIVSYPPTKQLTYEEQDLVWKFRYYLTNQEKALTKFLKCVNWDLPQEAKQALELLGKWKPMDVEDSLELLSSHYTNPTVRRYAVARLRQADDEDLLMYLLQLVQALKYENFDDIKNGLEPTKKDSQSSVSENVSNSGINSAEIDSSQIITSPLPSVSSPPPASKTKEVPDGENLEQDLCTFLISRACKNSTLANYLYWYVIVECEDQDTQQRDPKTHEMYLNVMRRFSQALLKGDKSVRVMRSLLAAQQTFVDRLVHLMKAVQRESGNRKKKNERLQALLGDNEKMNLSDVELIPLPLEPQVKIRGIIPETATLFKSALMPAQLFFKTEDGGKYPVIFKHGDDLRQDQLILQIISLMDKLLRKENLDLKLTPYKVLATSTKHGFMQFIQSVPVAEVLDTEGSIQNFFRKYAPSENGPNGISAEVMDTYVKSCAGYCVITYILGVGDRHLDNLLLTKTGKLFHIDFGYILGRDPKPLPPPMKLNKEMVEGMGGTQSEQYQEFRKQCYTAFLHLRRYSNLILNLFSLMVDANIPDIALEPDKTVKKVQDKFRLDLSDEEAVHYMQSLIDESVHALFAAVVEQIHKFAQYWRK
UniProt Q99569: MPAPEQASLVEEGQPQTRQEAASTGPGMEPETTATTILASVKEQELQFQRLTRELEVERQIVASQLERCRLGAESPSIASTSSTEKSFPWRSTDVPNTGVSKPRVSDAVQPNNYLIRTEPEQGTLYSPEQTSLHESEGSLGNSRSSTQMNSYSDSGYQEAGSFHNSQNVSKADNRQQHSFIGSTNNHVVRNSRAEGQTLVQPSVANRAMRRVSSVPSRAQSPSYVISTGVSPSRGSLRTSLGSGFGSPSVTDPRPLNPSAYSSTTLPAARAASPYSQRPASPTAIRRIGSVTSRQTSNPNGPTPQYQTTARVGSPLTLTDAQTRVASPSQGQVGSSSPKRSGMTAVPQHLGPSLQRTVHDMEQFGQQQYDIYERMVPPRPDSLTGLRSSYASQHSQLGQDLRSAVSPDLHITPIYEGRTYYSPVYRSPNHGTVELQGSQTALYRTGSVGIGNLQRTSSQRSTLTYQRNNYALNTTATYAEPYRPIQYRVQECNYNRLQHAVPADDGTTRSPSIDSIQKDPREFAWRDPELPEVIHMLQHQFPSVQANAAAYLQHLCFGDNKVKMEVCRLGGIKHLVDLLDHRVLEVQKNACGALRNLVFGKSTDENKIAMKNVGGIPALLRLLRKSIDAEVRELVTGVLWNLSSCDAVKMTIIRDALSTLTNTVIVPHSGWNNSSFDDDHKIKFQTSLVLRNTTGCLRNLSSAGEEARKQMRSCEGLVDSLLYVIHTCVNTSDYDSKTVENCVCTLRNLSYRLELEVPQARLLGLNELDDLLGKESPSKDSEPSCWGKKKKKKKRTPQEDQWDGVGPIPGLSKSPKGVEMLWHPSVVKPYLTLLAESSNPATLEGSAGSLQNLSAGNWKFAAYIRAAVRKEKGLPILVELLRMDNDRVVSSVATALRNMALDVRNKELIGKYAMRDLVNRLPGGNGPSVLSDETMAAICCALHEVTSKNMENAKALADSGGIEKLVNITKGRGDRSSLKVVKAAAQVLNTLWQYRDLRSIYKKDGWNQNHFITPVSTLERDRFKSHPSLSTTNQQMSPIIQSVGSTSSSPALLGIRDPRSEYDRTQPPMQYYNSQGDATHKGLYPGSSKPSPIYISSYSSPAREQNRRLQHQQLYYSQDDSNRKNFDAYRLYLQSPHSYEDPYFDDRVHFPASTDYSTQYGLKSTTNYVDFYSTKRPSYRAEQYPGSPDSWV
UniProt Q9Y2S7: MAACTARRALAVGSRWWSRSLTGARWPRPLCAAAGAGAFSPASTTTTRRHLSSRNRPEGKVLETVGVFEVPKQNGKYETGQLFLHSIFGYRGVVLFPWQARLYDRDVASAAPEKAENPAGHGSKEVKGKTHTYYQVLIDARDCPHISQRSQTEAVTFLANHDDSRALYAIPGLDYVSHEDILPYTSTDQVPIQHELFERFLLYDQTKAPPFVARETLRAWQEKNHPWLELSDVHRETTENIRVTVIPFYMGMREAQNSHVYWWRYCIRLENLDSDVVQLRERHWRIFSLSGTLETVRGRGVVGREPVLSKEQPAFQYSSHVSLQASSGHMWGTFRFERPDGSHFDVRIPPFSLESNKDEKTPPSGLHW

Compound in assay [1]: ClCC(=O)N[C@@H]1CCCc2ccccc12
The assay can be described thus: log2 mean competition ratio of IA-DTB cysteine labelling (DMSO/compound) (log2 ratio); higher = stronger cysteine engagement by compound. To be noted: treatment time: 4 h, cell line lysate: HEK293T. The protocol: (§1)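 IA-DTB competitive cysteine chemoproteomics in HEK293T RIPA lysate. Lysates were treated with compound 29 or 30 at 50 or 200 µM for 4 h, then IA-DTB (500 µM, 1 h), trypsin-digested, NeutrAvidin-enriched and analysed by diaPASEF. Competition ratio = intensity DMSO / intensity compound (n=4 treated, n=64 DMSO); binding: mean log2 CR ≥ 1 and p ≤ 0.05 plus QC filters. Target is the cysteine site.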

Compound in assay [2]: ClCC(=O)N[C@H]1CCCc2ccccc12
The assay is described as above. The note with it: treatment time: 4 h, cell line lysate: HEK293T. The method, then:
as §1

This is one part of the list. The data scatter; read single values as rough.

As to PI4KA C1761 (UniProt P42356), the “log2 mean competition ratio” value is 0.00925 in assay [1] (50 µM), -0.2 in assay [1] (200 µM), 0.574 in assay [2] (50 µM) and 0.127 in assay [2] (200 µM).

Take PLEKHM2 C551 (UniProt Q8IWE5): the “log2 mean competition ratio” value in assay [1] (50 µM) is -0.594; in assay [1] (200 µM) it was -0.199; in assay [2] (50 µM), -0.467; in assay [2] (200 µM), -0.116.

With PIK3C2B C429 (UniProt O00750), the “log2 mean competition ratio” value was 0.536 in assay [1] (50 µM), 0.00281 in assay [1] (200 µM), 0.0439 in assay [2] (50 µM) and -0.295 in assay [2] (200 µM).

Take POLD1 C193 (UniProt P28340): the “log2 mean competition ratio” value in assay [1] (50 µM) was 0.165; in assay [1] (200 µM) it was 0.169; in assay [2] (50 µM) it was 0.612; in assay [2] (200 µM) it was -0.116.

As to PMVK C92 (UniProt Q15126), the “log2 mean competition ratio” value in assay [1] (50 µM) is -0.275; in assay [1] (200 µM), 0.104; in assay [2] (50 µM), 0.152; in assay [2] (200 µM), 0.244.

As to POLR1B C1070 (UniProt Q9H9Y6), the “log2 mean competition ratio” value in assay [1] (50 µM) was 0.203; in assay [1] (200 µM) it was -0.309; in assay [2] (50 µM) it was 0.35; in assay [2] (200 µM), -0.434.

With PHKB C76 (UniProt Q93100), the “log2 mean competition ratio” value was -0.431 in assay [1] (50 µM), 0.207 in assay [1] (200 µM), 0.455 in assay [2] (50 µM) and -0.312 in assay [2] (200 µM).

As for PHKB C280 (UniProt Q93100), the “log2 mean competition ratio” value is -0.198 in assay [1] (50 µM), -0.427 in assay [1] (200 µM), 0.587 in assay [2] (50 µM) and 0.0925 in assay [2] (200 µM).

As to POLQ C1237 (UniProt O75417), the “log2 mean competition ratio” value in assay [1] (50 µM) is -0.234; in assay [1] (200 µM), -0.115; in assay [2] (50 µM) it was -0.131; in assay [2] (200 µM) it was -0.00524.

For the target PIGH C11 (UniProt Q14442), the “log2 mean competition ratio” value in assay [1] (50 µM) was -0.035; in assay [1] (200 µM), 0.12; in assay [2] (50 µM) it was 0.0828; in assay [2] (200 µM), 0.183.

As to PKM C474, the “log2 mean competition ratio” value in assay [1] (50 µM) is -0.0158; in assay [1] (200 µM), -0.258; in assay [2] (50 µM) it was 0.213; in assay [2] (200 µM) it was -0.0868.

On to PMM1 C16 (UniProt Q92871), for which the “log2 mean competition ratio” value in assay [1] (50 µM) was -0.0958; in assay [1] (200 µM), -0.395; in assay [2] (50 µM) it was 0.16; in assay [2] (200 µM), 0.191.

As to PLOD3 C691 (UniProt O60568), the “log2 mean competition ratio” value is -0.142 in assay [1] (50 µM), 0.0136 in assay [1] (200 µM), 0.368 in assay [2] (50 µM) and 1.24 in assay [2] (200 µM).

In the case of PI4KA C246 (UniProt P42356), the “log2 mean competition ratio” value in assay [1] (50 µM) was 0.0393; in assay [1] (200 µM), 0.291; in assay [2] (50 µM), -0.16; in assay [2] (200 µM), 0.304.

POLR1A C1562 (UniProt O95602): the “log2 mean competition ratio” value is -0.0108 in assay [1] (50 µM), -0.109 in assay [1] (200 µM), -0.478 in assay [2] (50 µM) and -0.26 in assay [2] (200 µM).

Regarding POLA1 C1085 (UniProt P09884), the “log2 mean competition ratio” value in assay [1] (50 µM) is 0.0381; in assay [1] (200 µM), 0.0919; in assay [2] (50 µM), -0.194; in assay [2] (200 µM) it was 0.228.

Consider PLS3 C463, for which the “log2 mean competition ratio” value was -0.23 in assay [1] (50 µM), -0.051 in assay [1] (200 µM), -0.392 in assay [2] (50 µM) and -0.186 in assay [2] (200 µM).

POGZ C1230 (UniProt Q7Z3K3): the “log2 mean competition ratio” value in assay [1] (50 µM) worked out at 0.289; in assay [1] (200 µM), 0.137; in assay [2] (50 µM), 0.819; in assay [2] (200 µM), 0.332.

On to PIK3C3 C336 (UniProt Q8NEB9), for which the “log2 mean competition ratio” value in assay [1] (50 µM) came out at 0.331; in assay [1] (200 µM), 0.086; in assay [2] (50 µM), 0.125; in assay [2] (200 µM), 0.052.

In the case of PKP4 C492 (UniProt Q99569), the “log2 mean competition ratio” value in assay [1] (50 µM) is 0.0524; in assay [1] (200 µM) it was 0.206; in assay [2] (50 µM), -0.045; in assay [2] (200 µM) it was 0.0929.

As to PIAS3 C418, the “log2 mean competition ratio” value in assay [1] (50 µM) is -0.228; in assay [1] (200 µM), -0.162; in assay [2] (50 µM), -0.0491; in assay [2] (200 µM), -0.231.

With POLR1A C613 (UniProt O95602), the “log2 mean competition ratio” value was 0.0367 in assay [1] (50 µM), -0.0864 in assay [1] (200 µM), 0.172 in assay [2] (50 µM) and -0.19 in assay [2] (200 µM).

As to PML C227 (UniProt P29590), the “log2 mean competition ratio” value in assay [1] (50 µM) is -0.203; in assay [1] (200 µM), 0.029; in assay [2] (50 µM), -0.186; in assay [2] (200 µM) it was -0.00348.

As for POLDIP2 C143 (UniProt Q9Y2S7), the “log2 mean competition ratio” value is 0.025 in assay [1] (50 µM), -0.135 in assay [1] (200 µM), -0.00642 in assay [2] (50 µM) and -0.081 in assay [2] (200 µM).
